Data reported in PubChem BioAssay AID540276 (National Center for Advancing Translational Sciences (NCATS), 2011).
Hit rate of the full screen: of about 300,000 compounds, about 5,400 (1.8%) were called active. The shares of active, inactive and inconclusive entries below differ from those in the screen. Calls come from the whole dose curve; tested in HEK293 cells. Potencies beside an inconclusive call are fits to weak or partial responses and may not hold up.

Experiment: qHTS for inhibitors of binding or entry into cells for Marburg Virus
Details: Marburg virus pseudotyped entry inhibition, cell reporter; activity change, negative = inhibition: at 37.8 µM (top of the series) unless noted
% is set by controls: 0 for no effect and ±100 for the full control effect; potency is the fitted concentration of half-maximal effect.

Row | SMILES | Potency | activity change, negative = inhibition
1 | COc1ccc(/C=C/c2c([N+](=O)[O-])c(=O)n(C)c(=O)n2C)c(OC)c1OC | inconclusive: 10 µM [inhibitor, single point] | 
2 | CCOc1ccc([C@H]2C[C@H](c3ccccc3)Nc3nc(N)nn32)cc1 |  | inactive: 0.661%
3 | CC(=O)N(C(C)=O)C1=C(C#N)C2(CCCCC2)Cc2ccccc21 | inconclusive: 0.112 µM [activator, full curve, poor fit] | 
4 | CC(C)CNC(=O)c1noc2c1CCCC2 |  | inactive: 7.16%
5 | Cc1ccc(C2CC(c3cccs3)=NN2C(=O)CSc2nc(=O)n3cc(C)ccc3n2)cc1 (stereo unspecified) |  | inactive: -33.1%
6 | CCN(CC)S(=O)(=O)c1cccc(C(=O)N[C@H](C(=O)NNC(=O)c2ccccc2)C(C)C)c1 |  | inactive: -3.02%
7 | O=C(c1ccc(Cn2ccc([N+](=O)[O-])n2)cc1)N1CCN(Cc2ccccc2)CC1 | inconclusive: 7.94 µM [inhibitor, partial curve] | 
8 | COc1cc(C2c3cc4c(cc3OC(NNC(N)=O)C2C)OCO4)cc(OC)c1OC (stereo unspecified) | inconclusive: 0.112 µM [inhibitor, full curve, poor fit] | 
9 | COc1ccc(O)c(/C=N/Nc2nc(C)cc(-c3ccccc3)n2)c1 | inconclusive: 35.5 µM [inhibitor, single point] | 
10 | COc1ccccc1CCNC(=O)c1cc(C2CC2)nc2c1cnn2C(C)C | inconclusive: 11.2 µM [inhibitor, single point] | 
11 | O=C(NN1c2ccccc2CCc2ccccc21)c1ccccc1Br | inconclusive: 0.058 µM [inhibitor, full curve, poor fit] | 
12 | Cc1ccc(Cl)cc1-n1c(=O)c2sc3ccccc3c2n(CC(=O)NC2CCCC2)c1=O | inconclusive: 7.94 µM [inhibitor, partial curve, poor fit] | 
13 | COc1cc(C(C[N+](=O)[O-])c2c(-c3ccccc3)cc3ccccn23)cc(OC)c1OC (stereo unspecified) | inconclusive: 29.1 µM [inhibitor, single point] | 
14 | CCOC(=O)C1CCCN(C(c2ccccn2)c2c(C)[nH]c3ccccc23)C1 (stereo unspecified) |  | inactive: 2.16% [at 46.1 µM]
15 | COc1ccc(C(=O)c2ccc(Cl)c([N+](=O)[O-])c2)cc1 | active: 5.8 µM | 
16 | O=S(=O)(c1ccc2ccccc2c1)n1cnc2ccccc21 | inconclusive: 0.631 µM [inhibitor, partial curve, poor fit] | 
17 | CC(=O)N1CCN(S(=O)(=O)c2cccc(C(=O)N(Cc3ccccc3)c3ccc(C)cc3)c2)CC1 | inconclusive: 1.26 µM [inhibitor, partial curve, poor fit] | 
18 | O=C(CCCn1c(=S)[nH]c2cc3c(cc2c1=O)OCO3)N1CCN(C2CCCCC2)CC1 | inconclusive: 29.1 µM [inhibitor, single point] | 
19 | Cc1ccnc(SCC(=O)Nc2sc3c(c2C#N)CCCC3)n1 |  | inactive: -27.3%
20 | COc1ccc(C(=O)Nc2ccc(C(=O)Nc3cccc(C)c3)cc2)cc1 | inconclusive: 4.47 µM [inhibitor, full curve, poor fit] | 
21 | FCCCOc1ccc(-c2nccc(-c3ccc(F)cc3)n2)cc1 |  | inactive: -0.416% [at 46.1 µM]
22 | NS(=O)(=O)c1ccc(NC(=O)c2ccc(CSc3ccccc3)o2)cc1 | inconclusive: 35.5 µM [activator, single point] | 

Row | SMILES | Potency | activity change, negative = inhibition
23 | Cc1cc(C)c(C)c(S(=O)(=O)NC2CCN(Cc3ccccc3)CC2)c1C | inconclusive: 7.08 µM [inhibitor, full curve, poor fit] | 
24 | O=c1c2ccccc2nc(/C=C/c2ccc([N+](=O)[O-])o2)n1CCCO | active: 2 µM | 
25 | Cc1ccc(S(=O)(=O)N(C)C)cc1NC(=O)c1cc(-c2ccco2)nc2ccccc12 | inconclusive: 2.82 µM [inhibitor, full curve, poor fit] | 
26 | Cc1ccc(S(=O)(=O)NC(=O)Nc2ccc(N(C)C)cc2)cc1 | inconclusive: 28.2 µM [inhibitor, single point] | 
27 | CN=c1scc(-c2c[nH]c3ccccc23)n1C | inconclusive: 0.316 µM [inhibitor, full curve, poor fit] | 
28 | C=CCn1c(O)c2ccc(C(=O)N=NC(=O)c3ccc(F)cc3)cc2c1O |  | inactive: 9.56% [at 46.1 µM]
29 | O=C(Nc1ccccc1)/C(=C/c1ccc([N+](=O)[O-])cc1)NC(=O)c1ccco1 | inconclusive: 11.2 µM [inhibitor, single point] | 
30 | Nc1ccccc1C(=O)Nc1ccc(Cl)cc1Cl |  | inactive: -12.7% [at 46.1 µM]
31 | COc1cc(SC)ccc1C(=O)NCCN1CCOCC1 |  | inactive: -1.25%
32 | CC(C)(C)c1cc(C(=O)Nc2ccccc2)ccn1 |  | inactive: 4.44%
33 | N#CC1=C(N)NC(SCc2ccc(Cl)cc2)=C(C#N)C12CCCCC2 | active: 11.2 µM | 
34 | Cc1nn2c(NCCCN3CCOCC3)c3c(nc2c1-c1ccccc1)CCC3 | inconclusive: 29.1 µM [inhibitor, single point] | 
35 | C=CCOc1ccc(CNc2nccs2)cc1OCC |  | inactive: 14.4%
36 | O=C(CCCCCCCC(=O)NCC1CCCO1)NCC1CCCO1 (stereo unspecified) |  | inactive: 21%
37 | COc1ccccc1NS(=O)(=O)c1ccc2oc(SCc3ccc(C#N)cc3)nc2c1 | inconclusive: 5.62 µM [inhibitor, partial curve, poor fit] | 
38 | CCCN(CC1CC1)C(=O)COc1ccccc1C(=O)NCc1ccccc1 | inconclusive: 32.6 µM [inhibitor, single point] | 
39 | CCN1CCC(N(C)C2CCCCC2)CC1 | inconclusive: 5.01 µM [inhibitor, full curve, poor fit] | 
40 | Cc1nc(N2CCN(C(=O)c3ccco3)CC2)c2c3c(sc2n1)CCC3 | active: 10 µM | 
41 | COc1ccc(-c2nc(NC(=O)C3CC(=O)N(c4ccc5c(c4)OCCO5)C3)sc2C)cc1 (stereo unspecified) | inconclusive: 8.91 µM [inhibitor, partial curve, poor fit] | 
42 | O=S(=O)(c1ccccc1)c1cccc(S(=O)(=O)N2CCCCC2)c1 | inconclusive: 0.116 µM [inhibitor, full curve, poor fit] | 
43 | Cc1cc(C)c(S(=O)(=O)Nc2ccc(O)cc2)c(C)c1 | inconclusive: 23.1 µM [inhibitor, single point] | 
44 | CC1CN=C(Nc2cccc3ccccc23)S1 (stereo unspecified) |  | inactive: 5.41%

Row | SMILES | Potency | activity change, negative = inhibition
45 | O=[N+]([O-])c1ccc(-c2cn(-c3ccccc3)c(=S)[nH]2)cc1 | inconclusive: 0.282 µM [activator, partial curve, poor fit] | 
46 | O=C1C2=C(Nc3ccccc3SC2c2ccc(C(F)(F)F)cc2)c2ccccc21 (stereo unspecified) | inconclusive: 11.2 µM [inhibitor, partial curve, poor fit] | 
47 | CC(C(=O)Nc1ccc(C(F)(F)F)cc1)N(C)CC(=O)N1CCN(Cc2ccccc2)CC1 (stereo unspecified) | inconclusive: 35.5 µM [inhibitor, partial curve, poor fit] | 
48 | O=C(Nc1nc2cc3c(cc2s1)OCO3)c1ccco1 | inconclusive: 1 µM [inhibitor, full curve, poor fit] | 
49 | Cc1ccc(NS(=O)(=O)c2ccccc2)c2c1CC(C)(C)O2 | inconclusive: 31.6 µM [inhibitor, single point] | 
50 | CCc1ccc2nc(N=C(N)N)nc(C)c2c1 | inconclusive: 7.94 µM [inhibitor, partial curve, poor fit] | 
51 | Cc1ccc(N/C=C(\[N+](=O)[O-])S(=O)(=O)c2ccccc2)cc1 |  | inconclusive: 1.18% [activator] [at 46.1 µM]
52 | c1ccc2c(c1)[nH]c1c(N3CCCC3)ncnc12 | inconclusive: 20 µM [inhibitor, single point] | 
53 | COc1ccc(C(C(=O)NC2CCCCC2)N(C(=O)CCl)c2ccc(Cl)cc2)cc1 (stereo unspecified) | inconclusive: 35.5 µM [inhibitor, partial curve, poor fit] | 
54 | N/C(=N\OC(=O)c1cc([N+](=O)[O-])ccc1Cl)c1cccnc1 | inconclusive: 35.5 µM [inhibitor, single point] | 
55 | COc1ccc(NC(=O)CSc2ccc(F)cc2)cc1S(=O)(=O)N1CCCCC1 | inconclusive: 35.5 µM [inhibitor, single point] | 
56 | CC(CC(=O)Nc1nc2ccccc2[nH]1)c1ccccc1 (stereo unspecified) | inconclusive: 25.1 µM [inhibitor, single point] | 
57 | COc1ccc(CC(=O)Nc2c(C(=O)N3CCN(c4ccccc4F)CC3)oc3ccccc23)cc1OC | inconclusive: 10 µM [inhibitor, partial curve, poor fit] | 
58 | COCCn1c(SCC(=O)Nc2cccnc2Cl)nc2ccccc2c1=O |  | inactive: -5.99%
59 | N#CN=C1SCCS1 | inconclusive: 5.62 µM [activator, single point] | 
60 | Cc1ccc(S(=O)(=O)N(C)c2ccc(C(=O)N(C)Cc3nc4ccccc4c(=O)[nH]3)cc2)cc1 | inconclusive: 6.31 µM [inhibitor, full curve, poor fit] | 
61 | O=C1N/C(=C/c2cccn2-c2ccccc2)C(=O)N1Cc1ccc(F)cc1 | inconclusive: 5.8 µM [activator, single point] | 
62 | CC(C)c1ccc(S(=O)(=O)N2CCN(CC(=O)Nc3ccc4c(c3)OCO4)CC2)cc1 | inconclusive: 0.562 µM [inhibitor, full curve, poor fit] | 
63 | Nc1nnc(-c2cccc([N+](=O)[O-])c2)s1 | inconclusive: 14.1 µM [activator, single point] | 
64 | COc1cccc(NC(=O)Cn2cnc3sc(C)c(S(=O)(=O)N4CCCCC4)c3c2=O)c1 | inconclusive: 18.3 µM [inhibitor, partial curve] | 
65 | COc1ccc(OC)c(/C=N/N=C2\SCC(=O)N2Cc2ccco2)c1 |  | inactive: 2.1%
66 | COc1ccc(C(=O)NN(C)c2nc(-c3ccccc3)cc(C)c2S(C)(=O)=O)cc1 | inconclusive: 20 µM [inhibitor, partial curve, poor fit] | 

Looked up by compound from the entries so far:
Row | SMILES | Potency | activity change, negative = inhibition
15 | COc1ccc(C(=O)c2ccc(Cl)c([N+](=O)[O-])c2)cc1 | active: 5.8 µM | 
45 | O=[N+]([O-])c1ccc(-c2cn(-c3ccccc3)c(=S)[nH]2)cc1 | inconclusive: 0.282 µM [activator, partial curve, poor fit] | 
57 | COc1ccc(CC(=O)Nc2c(C(=O)N3CCN(c4ccccc4F)CC3)oc3ccccc23)cc1OC | inconclusive: 10 µM [inhibitor, partial curve, poor fit] | 
